From US12729225B2, “Non-canonical SWI/SNF complex and uses thereof” (Dana-Farber Cancer Institute, Inc., priority 2018, dated 2026)

B1: SMARCD2 (protein)
chain: MSGRGAGGFPLPPLSPGGGAVAAALGAPPPPAGPGMLPGPALRGPGPAGGVGGPGAAAFRPMGPAGPAAQYQRPGMSPGNRMPMAGLQVGPPAGSPFGAAAPLRPGMPPTMMDPFRKRLLVPQAQPPMPAQRRGLKRRKMADKVLPQRIRELVPESQAYMDLLAFERKLDQTIARKRMEIQEAIKKPLTQKRKLRIYISNTFSPSKAEGDSAGTAGTPGGTPAGDKVASWELRVEGKLLDDPSKQKRKFSSFFKSLVIELDKELYGPDNHLVEWHRMPTTQETDGFQVKRPGDLNVKCTLLLMLDHQPPQYKLDPRLARLLGVHTQTRAAIMQALWLYIKHNQLQDGHEREYINCNRYFRQIFSCGRLRFSEIPMKLAGLLQHPDPIVINHVISVDPNDQKKTACYDIDVEVDDPLKAQMSNFLASTTNQQEIASLDVKIHETIESINQLKTQRDFMLSFSTDPQDFIQEWLRSQRRDLKIITDVIGNPEEERRAAFYHQPWAQEAVGRHIFAKVQQRRQELEQVLGIRLT
B2: IKZF4 (protein, UniProt Q9H2S9 1-585, looked up)
Zinc finger protein Eos: MHTPPALPRRFQGGGRVRTPGSHRQGKDNLERDPSGGCVPDFLPQAQDSNHFIMESLFCESSGDSSLEKEFLGAPVGPSVSTPNSQHSSPSRSLSANSIKVEMYSDEESSRLLGPDERLLEKDDSVIVEDSLSEPLGYCDGSGPEPHSPGGIRLPNGKLKCDVCGMVCIGPNVLMVHKRSHTGERPFHCNQCGASFTQKGNLLRHIKLHSGEKPFKCPFCNYACRRRDALTGHLRTHSVSSPTVGKPYKCNYCGRSYKQQSTLEEHKERCHNYLQSLSTEAQALAGQPGDEIRDLEMVPDSMLHSSSERPTFIDRLANSLTKRKRSTPQKFVGEKQMRFSLSDLPYDVNSGGYEKDVELVAHHSLEPGFGSSLAFVGAEHLRPLRLPPTNCISELTPVISSVYTQMQPLPGRLELPGSREAGEGPEDLADGGPLLYRPRGPLTDPGASPSNGCQDSTDTESNHEDRVAGVVSLPQGPPPQPPPTIVVGRHSPAYAKEDPKPQEGLLRGTPGPSKEVLRVVGESGEPVKAFKCEHCRILFLDHVMFTIHMGCHGFRDPFECNICGYHSQDRYEFSSHIVRGEHKVG
B3: RBMX2 (protein, UniProt Q9Y388 1-322, looked up)
RNA-binding motif protein, …: MNPLTKVKLINELNEREVQLGVADKVSWHSEYKDSAWIFLGGLPYELTEGDIICVFSQYGEIVNINLVRDKKTGKSKGFCFLCYEDQRSTILAVDNFNGIKIKGRTIRVDHVSNYRAPKDSEEIDDVTRQLQEKGCGARTPSPSLSESSEDEKPTKKHKKDKKEKKKKKKEKEKADREVQAEQPSSSSPRRKTVKEKDDTGPKKHSSKNSERAQKSEPREGQKLPKSRTAYSGGAEDLERELKKEKPKHEHKSSSRREAREEKTRIRDRGRSSDAHSSWYNGRSEGRSYRSRSRSRDKSHRHKRARRSRERESSNPSDRWRH
B4: ETFA (protein, UniProt P13804 20-333, looked up)
Electron transfer …: QSTLVIAEHANDSLAPITLNTITAATRLGGEVSCLVAGTKCDKVAQDLCKVAGIAKVLVAQHDVYKGLLPEELTPLILATQKQFNYTHICAGASAFGKNLLPRVAAKLEVAPISDIIAIKSPDTFVRTIYAGNALCTVKCDEKVKVFSVRGTSFDAAATSGGSASSEKASSTSPVEISEWLDQKLTKSDRPELTGAKVVVSGGRGLKSGENFKLLYDLADQLHAAVGASRAAVDAGFVPNDMQVGQTGKIVAPELYIAVGISGAIQHLAGMKDSKTIVAINKDPEAPIFQVADYGIVADLFKVVPEMTEILKKK
B5: HSPD1 (protein, UniProt P10809 27-573, looked up)
60 kDa heat shock protein, …: AKDVKFGADARALMLQGVDLLADAVAVTMGPKGRTVIIEQSWGSPKVTKDGVTVAKSIDLKDKYKNIGAKLVQDVANNTNEEAGDGTTTATVLARSIAKEGFEKISKGANPVEIRRGVMLAVDAVIAELKKQSKPVTTPEEIAQVATISANGDKEIGNIISDAMKKVGRKGVITVKDGKTLNDELEIIEGMKFDRGYISPYFINTSKGQKCEFQDAYVLLSEKKISSIQSIVPALEIANAHRKPLVIIAEDVDGEALSTLVLNRLKVGLQVVAVKAPGFGDNRKNQLKDMAIATGGAVFGEEGLTLNLEDVQPHDLGKVGEVIVTKDDAMLLKGKGDKAQIEKRIQEIIEQLDVTTSEYEKEKLNERLAKLSDGVAVLKVGGTSDVEVNEKKDRVTDALNATRAAVEEGIVLGGGCALLRCIPALDSLTPANEDQKIGIEIIKRTLKIPAMTIAKNAGVEGSLIVEKIMQSSSEVGYDAMAGDFVNMVEKGIIDPTKVVRTALLDAAGVASLLTTAEVVVTEIPKEEKDPGMGAMGGMGGGMGGGMF
B6: HNRNPF (protein, UniProt P52597 1-415, looked up)
Heterogeneous nuclear …: MMLGPEGGEGFVVKLRGLPWSCSVEDVQNFLSDCTIHDGAAGVHFIYTREGRQSGEAFVELGSEDDVKMALKKDRESMGHRYIEVFKSHRTEMDWVLKHSGPNSADSANDGFVRLRGLPFGCTKEEIVQFFSGLEIVPNGITLPVDPEGKITGEAFVQFASQELAEKALGKHKERIGHRYIEVFKSSQEEVRSYSDPPLKFMSVQRPGPYDRPGTARRYIGIVKQAGLERMRPGAYSTGYGGYEEYSGLSDGYGFTTDLFGRDLSYCLSGMYDHRYGDSEFTVQSTTGHCVHMRGLPYKATENDIYNFFSPLNPVRVHIEIGPDGRVTGEADVEFATHEEAVAAMSKDRANMQHRYIELFLNSTTGASNGAYSSQVMQGMGVSAAQATYSGLESQSVSGCYGAGYSGQNSMGGYD
B7: L2HGDH (protein, UniProt Q9H9P8 52-463, looked up)
L-2-hydroxyglutarate …: VIVGGGIVGLASARALILRHPSLSIGVLEKEKDLAVHQTGHNSGVIHSGIYYKPESLKAKLCVQGAALLYEYCQQKGISYKQCGKLIVAVEQEEIPRLQALYEKGLQNGVPGLRLIQQEDIKKKEPYCRGLMAIDCPHTGIVDYRQVALSFAQDFQEAGGSVLTNFEVKGIEMAKESPSRSIDGMQYPIVIKNTKGEEIRCQYVVTCAGLYSDRISELSGCTPDPRIVPFRGDYLLLKPEKCYLVKGNIYPVPDSRFPFLGVHFTPRMDGSIWLGPNAVLAFKREGYRPFDFSATDVMDIIINSGLIKLASQNFSYGVTEMYKACFLGATVKYLQKFIPEITISDILRGPAGVRAQALDRDGNLVEDFVFDAGVGDIGNRILHVRNAPSPAATSSIAISGMIADEVQQRFEL
B8: ALDH18A1 (protein, UniProt P54886 1-795, looked up)
Delta-1-pyrroline-5-carboxylat …: MLSQVYRCGFQPFNQHLLPWVKCTTVFRSHCIQPSVIRHVRSWSNIPFITVPLSRTHGKSFAHRSELKHAKRIVVKLGSAVVTRGDECGLALGRLASIVEQVSVLQNQGREMMLVTSGAVAFGKQRLRHEILLSQSVRQALHSGQNQLKEMAIPVLEARACAAAGQSGLMALYEAMFTQYSICAAQILVTNLDFHDEQKRRNLNGTLHELLRMNIVPIVNTNDAVVPPAEPNSDLQGVNVISVKDNDSLAARLAVEMKTDLLIVLSDVEGLFDSPPGSDDAKLIDIFYPGDQQSVTFGTKSRVGMGGMEAKVKAALWALQGGTSVVIANGTHPKVSGHVITDIVEGKKVGTFFSEVKPAGPTVEQQGEMARSGGRMLATLEPEQRAEIIHHLADLLTDQRDEILLANKKDLEEAEGRLAAPLLKRLSLSTSKLNSLAIGLRQIAASSQDSVGRVLRRTRIAKNLELEQVTVPIGVLLVIFESRPDCLPQVAALAIASGNGLLLKGGKEAAHSNRILHLLTQEALSIHGVKEAVQLVNTREEVEDLCRLDKMIDLIIPRGSSQLVRDIQKAAKGIPVMGHSEGICHMYVDSEASVDKVTRLVRDSKCEYPAACNALETLLIHRDLLRTPLFDQIIDMLRVEQVKIHAGPKFASYLTFSPSEVKSLRTEYGDLELCIEVVDNVQDAIDHIHKYGSSHTDVIVTEDENTAEFFLQHVDSACVFWNASTRFSDGYRFGLGAEVGISTSRIHARGPVGLEGLLTTKWLLRGKDHVVSDFSEHGSLKYLHENLPIPQRNTN
B9: SFXN1 (protein, UniProt Q9H9B4 2-322, looked up)
Sideroflexin-1: SGELPPNINIKEPRWDQSTFIGRANHFFTVTDPRNILLTNEQLESARKIVHDYRQGIVPPGLTENELWRAKYIYDSAFHPDTGEKMILIGRMSAQVPMNMTITGCMMTFYRTTPAVLFWQWINQSFNAVVNYTNRSGDAPLTVNELGTAYVSATTGAVATALGLNALTKHVSPLIGRFVPFAAVAAANCINIPLMRQRELKVGIPVTDENGNRLGESANAAKQAITQVVVSRILMAAPGMAIPPFIMNTLEKKAFLKRFPWMSAPIQVGLVGFCLVFATPLCCALFPQKSSMSVTSLEAELQAKIQESHPELRRVYFNKGL
B10: ZC3H18 (protein, UniProt Q86VM9 1-953, looked up)
Zinc finger CCCH …: MDVAESPERDPHSPEDEEQPQGLSDDDILRDSGSDQDLDGAGVRASDLEDEESAARGPSQEEEDNHSDEEDRASEPKSQDQDSEVNELSRGPTSSPCEEEGDEGEEDRTSDLRDEASSVTRELDEHELDYDEEVPEEPAPAVQEDEAEKAGAEDDEEKGEGTPREEGKAGVQSVGEKESLEAAKEKKKEDDDGEIDDGEIDDDDLEEGEVKDPSDRKVRPRPTCRFFMKGNCTWGMNCRFIHPGVNDKGNYSLITKADPFPPNGAPPLGPHPLMPANPWGGPVVDEILPPPPPEPPTESAWERGLRHAKEVLKKATIRKEQEPDFEEKRFTVTIGEDEREFDKENEVFRDWNSRIPRDVRDTVLEPYADPYYDYEIERFWRGGQYENFRVQYTETEPYHNYRERERERERENRQRERERERERDRERERRQRERERERERERDKERQRRKEEWERERAKRDEKDRQHRDRDREKEREKEKGKPKPRSPQPPSRQAEPPKKEAATTGPQVKRADEWKDPWRRSKSPKKKLGVSVSPSRARRRRKTSASSASASNSSRSSSRSSSYSGSGSSRSRSRSSSYSSYSSRSSRHSSFSGSRSRSRSFSSSPSPSPTPSPHRPSIRTKGEPAPPPGKAGEKSVKKPAPPPAPPQATKTTAPVPEPTKPGDPREARRKERPARTPPRRRTLSGSGSGSGSSYSGSSSRSRSLSVSSVSSVSSATSSSSSAHSVDSEDMYADLASPVSSASSRSPAPAQTRKEKGKSKKEDGVKEEKRKRDSSTQPPKSAKPPAGGKSSQQPSTPQQAPPGQPQQGTFVAHKEIKLTLLNKAADKGSRKRYEPSDKDRQSPPPAKRPNTSPDRGSRDRKSGGRLGSPKPERQRGQNSKAPAAPADRKRQLSPQSKSSSKVTSVPGKASDPGAASTKSGKASTLSRREELLKQLKAVEDAIARKRAKIPGKA
B11: PYCR2 (protein, UniProt Q96C36 2-320, looked up)
Pyrroline-5-carboxylate …: SVGFIGAGQLAYALARGFTAAGILSAHKIIASSPEMNLPTVSALRKMGVNLTRSNKETVKHSDVLFLAVKPHIIPFILDEIGADVQARHIVVSCAAGVTISSVEKKLMAFQPAPKVIRCMTNTPVVVQEGATVYATGTHALVEDGQLLEQLMSSVGFCTEVEEDLIDAVTGLSGSGPAYAFMALDALADGGVKMGLPRRLAIQLGAQALLGAAKMLLDSEQHPCQLKDNVCSPGGATIHALHFLESGGFRSLLINAVEASCIRTRELQSMADQEKISPAALKKTLLDRVKLESPTVSTLTPSSPGKLLTRSLALGGKKD

test system: mSWI/SNF complexes; assay: mSWI/SNF complex purification with HA-tagged baits and mass spectrometry (peptide counts); set-up: species or system human; conditions: 293_HA-BRD7: HA-BRD7 bait purification, total peptide count per co-purified protein

| Molecule | Total |
| --- | --- |
| B1 | 59 |
| B2 | 8 |
| B3 | 7 |
| B4 | 6 |
| B5 | 42 |
| B6 | 6 |
| B7 | 6 |
| B8 | 6 |
| B9 | 6 |
| B10 | 6 |
| B11 | 6 |

same assay, conditions: 293_HA-BRD7: HA-BRD7 bait purification, unique peptide count per co-purified protein

| Molecule | Unique |
| --- | --- |
| B1 | 34 |
| B2 | 6 |
| B3 | 6 |
| B4 | 6 |
| B5 | 34 |
| B6 | 6 |
| B7 | 6 |
| B8 | 6 |
| B9 | 6 |
| B10 | 6 |
| B11 | 6 |

same assay, conditions: 293_HA-DPF2 purification, total peptides

| Molecule | Total |
| --- | --- |
| B1 | 51 |

same assay, conditions: 293_HA-DPF2 purification, unique peptides

| Molecule | Unique |
| --- | --- |
| B1 | 32 |
